Data published in PubChem BioAssay AID248 (DTP/NCI, 2004).
The list does not hold the whole screen: it gathers tests that were run many times, whatever their T/C, doses with no T/C, and many T/C values between a quarter and a half above the control. Other doses and runs of a compound stand elsewhere. T/C: endpoint of the treated group in % of that of the vehicle group. Some entries give survivors of the animals treated and no T/C: the source files T/C as zero there, which appears to mark a toxic dose or a test without result, not a measured value. Some doses without a T/C left all or most animals alive at the check, yet need not have been tolerated: survival well below the control is almost never listed, so the zero probably covers shortened survival too. Counts of survivors are from the toxicity check (mostly the fifth day) where no day follows; animals may have died later. Schedule codes are those of the source, read here as Q, the interval in days (D) or hours (H), X, the number of doses. Some doses were run more than once; their values stand side by side, smallest first. Counts like (3×) give the number of equal values in this list. Some schedules carry Z or #; the key to these is not given. Where survival is the endpoint, this PubChem deposit counts one and a half times the control or more as active, and values a quarter to a half above the control carry no call in these data; other NCI protocols may use other cut-offs. Some T/C values are followed by the survivors on the day toxicity was checked, most often the fifth; without a count, all were alive then.

Test system: L1210 leukemia ip in BDF1 mice, survival T/C
Test: NCI In Vivo Anticancer Drug Screen. Data for tumor model L1210 Leukemia (intraperitoneal) in B6D2F1 (BDF1) mice
Details: T/C endpoint: mean survival time, higher T/C = longer survival
[1] = dose: 50.0 mg/kg/injection, schedule: Q01DX009 (ip), vehicle: carboxymethylcellulose (CMC)
[2] = dose: 300.0 mg/kg/injection, schedule: Q01DX001 (ip), vehicle: carboxymethylcellulose (CMC)
[3] = dose: 400.0 mg/kg/injection, schedule: Q04DX003 (ip), vehicle: Klucel (hydroxypropylcellulose) (HPC)
[4] = dose: 200.0 mg/kg/injection, schedule: Q04DX003 (ip), vehicle: saline with Tween-80
[5] = dose: 400.0 mg/kg/injection, schedule: Q04DX003 (ip), vehicle: saline with Tween-80
[6] = dose: 100.0 mg/kg/injection, schedule: Q04DX003 (ip), vehicle: Klucel (hydroxypropylcellulose) (HPC)
[7] = dose: 100.0 mg/kg/injection, schedule: Q04DX003 (ip), vehicle: saline with Tween-80
[8] = dose: 100.0 mg/kg/injection, schedule: Q01DX001 (ip), vehicle: saline
[9] = dose: 100.0 mg/kg/injection, schedule: Q01DX009 (ip), vehicle: Klucel (hydroxypropylcellulose) (HPC)
[10] = dose: 200.0 mg/kg/injection, schedule: Q01DX009 (ip), vehicle: Klucel (hydroxypropylcellulose) (HPC)
[11] = dose: 400.0 mg/kg/injection, schedule: Q01DX009 (ip), vehicle: Klucel (hydroxypropylcellulose) (HPC)
[12] = dose: 400.0 mg/kg/injection, schedule: Q01DX001 (ip), vehicle: saline
[13] = dose: 300.0 mg/kg/injection, schedule: Q01DX001 (ip), vehicle: saline
[14] = dose: 100.0 mg/kg/injection, schedule: Q04DX003 (ip), vehicle: saline
[15] = dose: 200.0 mg/kg/injection, schedule: Q04DX003 (ip), vehicle: saline

`c1ccc(-c2oc3ccc4ccccc4c3c2-c2ccc(OCCN3CCCC3)cc2)cc1` was tested, and the survivor count (dose: 160.0 mg/kg/injection, schedule: Q01DX009 (ip), vehicle: Klucel (hydroxypropylcellulose) (HPC)) was 5 of 6.

`Nc1nc(N)c(-c2ccc(Cl)c(Cl)c2)c(COc2ccc(NC(=O)Nc3ccc(S(=O)(=O)F)c(Cl)c3)c(Cl)c2)n1` was tested, and the survivor count (dose: 300.0 mg/kg/injection, schedule: Q01DX001 (ip), vehicle: saline with Tween-80) was 6 of 6.

`O=P(Oc1ccccc1)(N1CCCCC1)N1CCCCC1` was tested, and the T/C [1] was 94 and 104 % of control (2×), the survivor count [1] was 3 of 3 and the T/C (dose: 100.0 mg/kg/injection, schedule: Q01DX009 (ip), vehicle: carboxymethylcellulose (CMC)) was 90 [4 of 6 alive], 91, 93, 94 % of control. For the same compound, the survivor count (dose: 100.0 mg/kg/injection, schedule: Q04DX003 (ip), vehicle: carboxymethylcellulose (CMC)) was 5 of 6, the survivor count (dose: 200.0 mg/kg/injection, schedule: Q01DX009 (ip), vehicle: carboxymethylcellulose (CMC)) was 3 of 3 and 6 of 6 and the survivor count (dose: 400.0 mg/kg/injection, schedule: Q04DX002 (ip), vehicle: carboxymethylcellulose (CMC)) was 3 of 3 and 6 of 6. For the same compound, the survivor count (dose: 400.0 mg/kg/injection, schedule: Q04DX003 (ip), vehicle: carboxymethylcellulose (CMC)) was 2 of 6.

For `CN(C)CCC1(c2ccccc2)CCN(C)C1=O` (stereo not drawn), the survivor count [2] was 3 of 6.

For `CC(C)N(C(=O)COc1ccc(Cl)cc1)c1ccccc1`, the survivor count [3] was 2 of 6.

`N#C/C(=C\c1ccc([N+](=O)[O-])o1)[N+](=O)[O-]` was tested, and the survivor count [4] was 0 of 6 and the survivor count [5] was 0 of 6.

With `CNC(=O)Nc1ccccc1C(=O)NN` the survivor count (dose: 400.0 mg/kg/injection, schedule: Q01DX009 (ip), vehicle: other) was 2 of 6.

With `C=CCN1C2C=C(c3ccccc3)CC1CCC2` (stereo not drawn) the survivor count (dose: 50.0 mg/kg/injection, schedule: Q04DX003 (ip), vehicle: Klucel (hydroxypropylcellulose) (HPC)) was 0 of 6, the survivor count [6] was 0 of 6 and the survivor count (dose: 200.0 mg/kg/injection, schedule: Q04DX003 (ip), vehicle: Klucel (hydroxypropylcellulose) (HPC)) was 0 of 6. The survivor count [3] was 0 of 6.

In the case of `CC(=O)OC1C=CCC2C(=O)C3=C(C(=O)c4ccccc4C3=O)C(=O)C12` (stereo not drawn), the survivor count [7] is reported as 6 of 6, the survivor count [4] is reported as 6 of 6 and the survivor count [5] is reported as 6 of 6.

For `Cn1cnccc1=S`, the survivor count [8] was 3 of 6.

In the case of `N#CC(C#N)=Cc1ccc([N+](=O)[O-])s1`, the survivor count (dose: 50.0 mg/kg/injection, schedule: Q04DX002 (ip), vehicle: Klucel (hydroxypropylcellulose) (HPC)) is reported as 1 of 3, the survivor count (dose: 100.0 mg/kg/injection, schedule: Q04DX002 (ip), vehicle: Klucel (hydroxypropylcellulose) (HPC)) is reported as 1 of 3 and the survivor count (dose: 200.0 mg/kg/injection, schedule: Q04DX002 (ip), vehicle: Klucel (hydroxypropylcellulose) (HPC)) is reported as 0 of 3. For the same compound, the survivor count (dose: 400.0 mg/kg/injection, schedule: Q04DX002 (ip), vehicle: Klucel (hydroxypropylcellulose) (HPC)) was 0 of 3.

For `O=C(CC(=O)Nc1ccc(C2=NCCCN2)cc1)Nc1ccc(C2=NCCCN2)cc1`, the survivor count (dose: 500.0 mg/kg/injection, schedule: Q01DX Z (ip), vehicle: water) was 0 of 6.

In the case of `CCOc1ccc(/C=C/[N+](=O)[O-])cc1`, the survivor count [9] is reported as 0 of 6 and 6 of 6, the survivor count [10] is reported as 1 of 6 and 2 of 6 and the survivor count [11] is reported as 0 of 6 (2×). The survivor count [3] was 6 of 6.

With `CCCCOC(c1ccccc1)N1CCCCC1` (stereo not drawn) the survivor count (dose: 50.0 mg/kg/injection, schedule: Q01DX001 (ip), vehicle: carboxymethylcellulose (CMC)) was 4 of 4, the survivor count (dose: 100.0 mg/kg/injection, schedule: Q01DX001 (ip), vehicle: carboxymethylcellulose (CMC)) was 4 of 4 and the survivor count (dose: 400.0 mg/kg/injection, schedule: Q01DX001 (ip), vehicle: carboxymethylcellulose (CMC)) was 4 of 4.

`c1ccc(CCC[P+](c2ccccc2)(c2ccccc2)c2ccccc2)cc1` was tested, and the survivor count (dose: 80.0 mg/kg/injection, schedule: Q01DX001 (ip), vehicle: saline) was 0 of 6, the survivor count [8] was 0 of 4 and the survivor count (dose: 200.0 mg/kg/injection, schedule: Q01DX001 (ip), vehicle: saline) was 0 of 4. The survivor count [12] was 0 of 4.

With `O=P(O)(O)c1cccc(Oc2ccccc2)c1` the survivor count [13] was 0 of 6.

For `Cc1ccc(S(=O)(=O)OCC2OC(OCc3ccccc3)C3OC(C)(C)OC23)cc1` (stereo not drawn), the survivor count [6] was 6 of 6.

In the case of `Cc1cccc(C(=O)C=C(C(F)(F)F)C(F)(F)F)c1`, the survivor count [7] is reported as 6 of 6, the survivor count [4] is reported as 5 of 6 and the survivor count [5] is reported as 0 of 6.

In the case of `CC(C)(C)c1cc(C[P+](c2ccc(Cl)cc2)(c2ccc(Cl)cc2)c2ccc(Cl)cc2)cc(C(C)(C)C)c1O`, the survivor count (dose: 50.0 mg/kg/injection, schedule: Q01DX009 (ip), vehicle: Klucel (hydroxypropylcellulose) (HPC)) is reported as 5 of 6, the survivor count [9] is reported as 4 of 6 and the survivor count [10] is reported as 0 of 6. The survivor count [3] was 3 of 6.

In the case of `NNC(=O)C1CC1`, the survivor count [14] is reported as 3 of 6 and the survivor count [15] is reported as 0 of 6.

With `CSc1nc(N)cc(NC(=O)CCl)n1` the survivor count [10] was 4 of 6 and the survivor count [3] was 1 of 6.

For `COC(CC[P+](c1ccccc1)(c1ccccc1)c1ccccc1)(C(=O)c1ccccc1)c1ccccc1` (stereo not drawn), the survivor count (dose: 75.0 mg/kg/injection, schedule: Q01DX001 (ip), vehicle: carboxymethylcellulose (CMC)) was 0 of 6, the survivor count (dose: 150.0 mg/kg/injection, schedule: Q01DX001 (ip), vehicle: carboxymethylcellulose (CMC)) was 0 of 6 and the survivor count [2] was 0 of 6.

In the case of `C[P+](C)(Cc1ccc([N+](=O)[O-])cc1)c1ccccc1`, the survivor count (dose: 100.0 mg/kg/injection, schedule: Q01DX009 (ip), vehicle: saline) is reported as 1 of 6, the survivor count [14] is reported as 3 of 6 and the survivor count [15] is reported as 0 of 6. The survivor count (dose: 400.0 mg/kg/injection, schedule: Q04DX003 (ip), vehicle: saline) was 0 of 6.

In the case of `O=NN1CCCCC1`, the survivor count [12] is reported as 0 of 4.

For `CC(=O)/C(C)=N\NC(=O)c1ccccn1`, the survivor count (dose: 200.0 mg/kg/injection, schedule: Q01DX015 (ip), vehicle: water) was 5 of 6 and the survivor count (dose: 400.0 mg/kg/injection, schedule: Q01DX001 (ip), vehicle: water) was 2 of 4.

In the case of `CCCCCCCCCCC(=O)OCC1OC2C(Oc3nc(=N)ccn32)C1OC(=O)CCCCCCCCCC` (stereo not drawn), the T/C (dose: 12.5 mg/kg/injection, schedule: Q01DX009 (ip), vehicle: water) is reported as 138 % of control, the survivor count (dose: 100.0 mg/kg/injection, schedule: Q01DX009 (ip), vehicle: water) is reported as 5 of 6 and the survivor count (dose: 200.0 mg/kg/injection, schedule: Q01DX009 (ip), vehicle: water) is reported as 1 of 6.

`C=CCNCC(O)c1ccccc1` (stereo not drawn) was tested, and the survivor count [10] was 2 of 6 and the survivor count [11] was 1 of 6.

With `NC(=O)Nc1ccc2c(c1)Cc1cc(F)ccc1-2` the T/C (dose: 200.0 mg/kg/injection, schedule: Q01DX001 (ip), vehicle: carboxymethylcellulose (CMC)) was 131 % of control.

For `O=NN(CCCl)C(=O)NC1CS(=O)(=O)CS(=O)(=O)C1`, the T/C (dose: 3.12 mg/kg/injection, schedule: Q01DX001 (ip), vehicle: other) was 136 % of control, the T/C (dose: 100.0 mg/kg/injection, schedule: Q01DX001 (ip), vehicle: other) was 137 % of control and the survivor count (dose: 150.0 mg/kg/injection, schedule: Q01DX001 (ip), vehicle: other) was 8 of 10.

`Cc1ccc(Nc2c3ccccc3nc3ccccc23)cc1` was tested, and the T/C (dose: 150.0 mg/kg/injection, schedule: Q01DX001 (ip), vehicle: saline) was 126 [5 of 6 alive] and 128 % of control, the survivor count (dose: 150.0 mg/kg/injection, schedule: Q01DX009 (ip), vehicle: saline with Tween-80) was 3 of 6 and the survivor count [13] was 0 of 6, 1 of 6, 2 of 6.
